Reference: paper doi:10.1101/2024.09.10.612170
Results are given in words; binding and its absence hold for the method and conditions named. Binding seen in cells or lysates may run through a third protein. Some results given as binding are weak or reduced against the parent protein; the word gives no strength. Sequences can lack the tags named with a protein.

Target: T1, FLAG-tagged EB1 (Drosophila) (UniProt Q9XZ57)
T1 sequence: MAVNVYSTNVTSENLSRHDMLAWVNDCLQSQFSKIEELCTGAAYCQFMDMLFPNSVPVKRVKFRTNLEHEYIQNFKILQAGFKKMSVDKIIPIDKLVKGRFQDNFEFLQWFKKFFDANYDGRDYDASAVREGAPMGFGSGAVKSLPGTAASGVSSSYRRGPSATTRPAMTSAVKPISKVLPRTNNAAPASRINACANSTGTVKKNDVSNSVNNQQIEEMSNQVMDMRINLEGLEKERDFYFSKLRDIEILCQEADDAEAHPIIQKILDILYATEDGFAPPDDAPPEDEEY
Test: co-IP

binding: binds
B1: KLP68D:YFP, full length (protein, UniProt P46867 1-784)
chain: MSAKSRRPGTGSSQTPNECVQVVVRCRPMSNRERSERSPEVVNVYPNRGVVELQNVVDGNKEQRKVFTYDAAYDASATQTTLYHEVVFPLVSSVLEGFNGCIFAYGQTGTGKTFTMEGVRGNDELMGIIPRTFEQIWLHINRTENFQFLVDVSYLEIYMEELRDLLKPNSKHLEVRERGSGVYVPNLHAINCKSVEDMIKVMQVGNKNRTVGFTNMNEHSSRSHAIFMIKIEMCDTETNTIKVGKLNLIDLAGSERQSKTGASAERLKEASKINLALSSLGNVISALAESSPHVPYRDSKLTRLLQDSLGGNSKTIMIANIGPSNYNYNETLTTLRYASRAKSIQNQPIKNEDPQDAKLKEYQEEIERLKRLIGPQQQQRSEKQVTAKKQRVKKPKKETVTKEMSDSLQVSTIEQPVEDDSDPEGAESESDKENEAEVAKSNEELERERVENSKLAAKLAELEGQLVRGGKNLLDTYSERQIELEKKLVEIAERKKREIEIQQQLELQEETTLEIRERNVSLEQEVELKKRKLSKCYAKYLALQQELNDCKSDHNQDLRELEMAQNELVKELKRQLLIIDNFVPIEVKQRLYTQAKYDEEQEEWKFSSMSLPTPPGGDGKFSSKRPVSHPQRRRPTSEYALQEAKSNSPSSLRFKSENIVNYELEMPCRTTQEYRTPKVSASLQAVLAQAMQTGGDDIDIVDSHTNSLRSRLENIINANANGGAGPGAGVAVGSSIPNVRNIKSSRGLPSAASNLDSNRRPPTGRLPAKKPASAYPKARGLVNK
